# Results from paper PMC10468069.
# Chains of the proteins cited; added tags and fusions are not shown.
# UniProt P53894: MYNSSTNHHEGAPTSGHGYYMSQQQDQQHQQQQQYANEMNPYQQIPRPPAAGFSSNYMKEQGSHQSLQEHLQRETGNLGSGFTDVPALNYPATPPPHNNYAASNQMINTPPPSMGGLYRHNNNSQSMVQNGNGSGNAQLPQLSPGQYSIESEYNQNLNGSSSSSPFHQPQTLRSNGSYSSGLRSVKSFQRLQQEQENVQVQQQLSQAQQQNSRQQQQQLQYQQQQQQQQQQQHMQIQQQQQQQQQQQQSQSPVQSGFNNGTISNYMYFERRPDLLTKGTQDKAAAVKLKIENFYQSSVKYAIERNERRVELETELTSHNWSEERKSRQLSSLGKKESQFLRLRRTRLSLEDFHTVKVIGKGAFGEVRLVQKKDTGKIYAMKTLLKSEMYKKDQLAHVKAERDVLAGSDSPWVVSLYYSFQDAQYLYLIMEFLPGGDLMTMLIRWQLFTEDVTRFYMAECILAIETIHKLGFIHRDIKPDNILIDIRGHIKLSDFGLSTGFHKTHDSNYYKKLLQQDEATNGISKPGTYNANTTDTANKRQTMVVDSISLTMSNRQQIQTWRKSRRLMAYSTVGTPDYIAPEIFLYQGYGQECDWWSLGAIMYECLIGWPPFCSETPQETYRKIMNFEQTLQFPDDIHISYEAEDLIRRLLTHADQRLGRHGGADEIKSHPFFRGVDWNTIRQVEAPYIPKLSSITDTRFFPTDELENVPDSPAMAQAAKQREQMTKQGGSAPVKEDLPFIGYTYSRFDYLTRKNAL
# B1: Lre1 (protein, UniProt P25579 1-583)
# chain: MPNTHTQHVQISEPNPVNTLSTPSKRGHRHRRSLAISGDFDFLKQPAAIVNLPPPQAAENCPSTAPTAVSSTLSPIRYNRFPCKTNEDAGTLDLPEPRFYPLSPKNNLQTPSPRFFISEEPSFSSPVKGVPDAIINLDDALKTRPRSFKSHRRSESAPPDLEVMVDKGNCAAGSNSMIKEEEDSLIEPESKNEYYEQKLPTALLSPLRPSLCVSEQAIDVDDSALNGSPTHHNHGMQNANARNSNTFNSLKIKGQKQRYYHYTKQLPLTVGCDSQSPKEQRSAASMTINQAMTPSSLAYTPSKLASTPATPVSFYDSNADINLESDNFPLKDNPRYAKDGYPKKCGNSQLNRVLDSDKRQDFSGESRRRRSGSPISHMQHRNLIDNMKGRRNSNTINSIFNYKSQHYEMPYDDMMKNENINAQSMPFSVNGVNNENSIGGVITRADDAPLQHSVVKSCTPDGKEEMNRLKSNDSNEYSKSEGQIRTNSQLSKDILMGEPGDMVDLSSFVNAQRKASNETGDLVFSLSQDDDALKTFHASNSAATSNESWCISDDALGKQAQDSEVRRKRKSKLGLFRHIFSRK
# B2: Sog2 (protein, UniProt Q08817 1-791)
# chain: MVATSSKRTLDPKEEHLPADKTSTNSSNTIISELATQEKSSSSGTTLKLIALNIKSISDEDVGYIQNVERLSLRKNHLTSLPASFKRLSRLQYLDLHNNNFKEIPYILTQCPQLEILDLSSNEIEALPDEISSFWQDNIRVLSLKDNNVTSIRNLKSITKLNKLSILDLEDNKIPKEELDQVQSYTPFHTGIPKEEYWAIAISRYLKDHPNLPTPEPKISRAAKRMGFINTNLSNGAMNENNIISLAPSANTTISASTAMVSSNQTSATSFSGTVNAESEQSGAVNGTELYNHTKYNDYFKRLSILPEESMSNGHQKISHAELVVSCRKLLFSFTECQQAIRKIASFCKEKAVAVNVVSLLYSVRSHTDNLVEVLQQTENEDESHDQALIKLCLTIITNFKQIITLLRKNFEIFFKEDDLCFIRMFYMTLMCAYMEMYNAWSFIKEDDQVSGSASKAPKKHSFSRHETSSSSITSGGGPAASTTSTHCSGNIKLLPKTRSTRTPSASALLSNSNILTGDTTAVPLLSPNLNGAHTHGPILGHQNAISNGSSQTNMNEVKTTSDTIPRQQLLQHNKSISDSKKESQAHEPKQHPVMTSSIINASNSNNVSNVNITPPPMNGGGAANSSANVVETNIDIQLYQTLSTVVKMVSVVYNQLTSEISKIAIASTMGKQILTDSLAPKIRDLTETCRQAMDLSKQLNERLNVLIPNDSNSEKYLTSLEKLKTWEIMNSFLKVIISILANTKIVMSDVPNLNELRPNLANLAKITKDVTVILDLSSYKAVSVSANSPE
# B3: Lst8 (protein, UniProt P41318 1-303)
# chain: MSVILVSAGYDHTIRFWEALTGVCSRTIQHSDSQVNRLEITNDKKLLATAGHQNVRLYDIRTTNPNPVASFEGHRGNVTSVSFQQDNRWMVTSSEDGTIKVWDVRSPSIPRNYKHNAPVNEVVIHPNQGELISCDRDGNIRIWDLGENQCTHQLTPEDDTSLQSLSMASDGSMLAAANTKGNCYVWEMPNHTDASHLKPVTKFRAHSTYITRILLSSDVKHLATCSADHTARVWSIDDDFKLETTLDGHQRWVWDCAFSADSAYLVTASSDHYVRLWDLSTREIVRQYGGHHKGAVCVALNDV
# B4: Kin2 (enzyme, UniProt P13186 1-1147)
# chain: MPNPNTADYLVNPNFRTSKGGSLSPTPEAFNDTRVAAPATLRMMGKQSGPRNDQQQAPLMPPADIKQGKEQAAQRQNDASRPNGAVELRQFHRRSLGDWEFLETVGAGSMGKVKLVKHRQTKEICVIKIVNRASKAYLHKQHSLPSPKNESEILERQKRLEKEIARDKRTVREASLGQILYHPHICRLFEMCTMSNHFYMLFEYVSGGQLLDYIIQHGSLKEHHARKFARGIASALQYLHANNIVHRDLKIENIMISSSGEIKIIDFGLSNIFDYRKQLHTFCGSLYFAAPELLKAQPYTGPEVDIWSFGIVLYVLVCGKVPFDDENSSILHEKIKKGKVDYPSHLSIEVISLLTRMIVVDPLRRATLKNVVEHPWMNRGYDFKAPSYVPNRVPLTPEMIDSQVLKEMYRLEFIDDIEDTRRSLIRLVTEKEYIQLSQEYWDKLSNAKGLSSSLNNNYLNSTAQQTLIQNHITSNPSQSGYNEPDSNFEDPTLAYHPLLSIYHLVSEMVARKLAKLQRRQALALQAQAQQRQQQQQVALGTKVALNNNSPDIMTKMRSPQKEVVPNPGIFQVPAIGTSGTSNNTNTSNKPPLHVMVPPKLTIPEQAHTSPTSRKSSDIHTELNGVLKSTPVPVSGEYQQRSASPVVGEHQEKNTIGGIFRRISQSGQSQHPTRQQEPLPEREPPTYMSKSNEISIKVPKSHSRTISDYIPSARRYPSYVPNSVDVKQKPAKNTTIAPPIRSVSQKQNSDLPALPQNAELIVQKQRQKLLQENLDKLQINDNDNNNVNAVVDGINNDNSDHYLSVPKGRKLHPSARAKSVGHARRESLKFTRPPIPAALPPSDMTNDNGFLGEANKERYNPVSSNFSTVPEDSTTYSNDTNNRLTSVYSQELTEKQILEEASKAPPGSMPSIDYPKSMFLKGFFSVQTTSSKPLPIVRHNIISVLTRMNIDFKEVKGGFICVQQRPSIETAAVPVITTTGVGLDSGKAMDLQNSLDSQLSSSYHSTASSASRNSSIKRQGSYKRGQNNIPLTPLATNTHQRNSSIPMSPNYGNQSNGTSGELSSMSLDYVQQQDDILTTSRAQNINNVNGQTEQTNTSGIKERPPIKFEIHIVKVRIVGLAGVHFKKVSGNTWLYKELASYILKELNL
# B5: Mob2 (protein, UniProt P43563 1-287)
# chain: MSFFNFKAFGRNSKKNKNQPLNVAQPPAMNTIYSSPHSSNSRLSLRNKHHSPKRHSQTSFPAQKSTPQSQQLTSTTPQSQQQEASERSESQQIMFLSEPFVRTALVKGSFKTIVQLPKYVDLGEWIALNVFEFFTNLNQFYGVVAEYVTPDAYPTMNAGPHTDYLWLDANNRQVSLPASQYIDLALTWINNKVNDKNLFPTKNGLPFPQQFSRDVQRIMVQMFRIFAHIYHHHFDKIVHLSLEAHWNSFFSHFISFAKEFKIIDRKEMAPLLPLIESFEKQGKIIYN
# B6: Yol036w (protein, UniProt Q08206 1-761)
# chain: MEHQDSSPPRFRNSGSNRVTVYNGTTLPTMPKSATPTSSSTTVTTHLQNIKEEETNDDELTQVDRSSPRVLGRISSTSSSSSNIDLRDNLDMLHEIEKSNTNISLSAPNLHEELGVLSDKGNSKEELALLPPLPHTGEMEITPQFDINEAIFERDDISHSSRLEPDDVLTKLANSTRDATGEDQGFVVMTHGHDASTNDDSQLSATILDNQTSFDLSKALEMTSHSNISNIINSSGSEGRRSRTPVSNSTLKPNLSSPESAEREANTTSSSSTSDHGATMQYDPKKIITPIPVLPSSVREQQQNNAPLRERSRSNSSALASTLRDTIISGLPQNINSVERKLSRKSNRSRKNTVTFEDRLQKLPPLSTQISNQYAKVAPAENNIALHFHNLPTPVSNTQTPVTFQSESGLTGGEKKMPFLRRASSALLRKTSAKNCSNLTRTNTPTLSTSSTFESDLNARQPMLIRRSSTIDNKLPRRQLSCSKLYSRLNSDSKFANSSRASEEVLVSTPNDTEHVYRKTSLGSKIKRGFTRILSDSNNSKEILTLSPKSMVTTGPTELSFSSLSTVGGHPTTPVSKENDRVSIDGVSTFNRASTSLPESSTDDISPLREEGKINVPKRTSSRKILSKNSSKKNVLPEQQTKPSEIYLDKEALQSFVPVLSVTEGTHRINRSSLQTQSTIGLCITNLRNKEGMKLNAKEYVEILAQQQRKEDERYAVLERKFASCRWCSDKDLQYLKKKRISMNKIWSDYVRFYRGKLNNP
# B7: Kin1 (enzyme, UniProt P13185 1-1064)
# chain: MDDYHVNTAFSMGRGNQQDDGNSESNSMHTQPSTMAPATLRMMGKSPQQQQQQNTPLMPPADIKYANNGNSHQAEQKERQVELEGKSRENAPKPNTTSQSRVSSSQGMPKQFHRKSLGDWEFVETVGAGSMGKVKLAKHRYTNEVCAVKIVNRATKAFLHKEQMLPPPKNEQDVLERQKKLEKEISRDKRTIREASLGQILYHPHICRLFEMCTLSNHFYMLFEYVSGGQLLDYIIQHGSIREHQARKFARGIASALIYLHANNIVHRDLKIENIMISDSSEIKIIDFGLSNIYDSRKQLHTFCGSLYFAAPELLKANPYTGPEVDVWSFGVVLFVLVCGKVPFDDENSSVLHEKIKQGKVEYPQHLSIEVISLLSKMLVVDPKRRATLKQVVEHHWMVRGFNGPPPSYLPKRVPLTIEMLDINVLKEMYRLEFIDDVEETRSVLVSIITDPTYVLLSRQYWTLAAKMNAESSDNGNAPNITESFEDPTRAYHPMISIYYLTSEMLDRKHAKIRNQQQRQSHENIEKLSEIPESVKQRDVEVNTTAMKSEPEATLATKDTSVPFTPKNSDGTEPPLHVLIPPRLAMPEQAHTSPTSRKSSDNQRREMEYALSPTPQGNDYQQFRVPSTTGDPSEKAKFGNIFRKLSQRRKKTIEQTSVNSNNSINKPVQKTHSRAVSDFVPGFAKPSYDSNYTMNEPVKTNDSRGGNKGDFPALPADAENMVEKQREKQIEEDIMKLHDINKQNNEVAKGSGREAYAAQKFEGSDDDENHPLPPLNVAKGRKLHPSARAKSVGHARRESLKYMRPPMPSSAYPQQELIDTGFLESSDDNKSDSLGNVTSQTNDSVSVHSVNAHINSPSVEKELTDEEILQEASRAPAGSMPSIDFPRSLFLKGFFSVQTTSSKPLPIVRYKIMFVLRKMNIEFKEVKGGFVCMQRFSSNNVAAKREGTPRSIMPLSHHESIRRQGSNKYSPSSPLTTNSIHQRKTSITETYGDDKHSGTSLENIHQQGDGSEGMTTTEKEPIKFEIHIVKVRIVGLAGVHFKKISGNTWLYKELASSILKELKL
# B8: Kic1 (enzyme, UniProt P38692 1-1080)
# chain: MTTKPQNSKQGLAEGEMDVSSLFKRTEVIGRGKFGVVYKGYNVKTGRVYAIKVLNLDSDSDEVEDVQREIQFLASLKQISNITRYYGSYLKDTSLWIIMEHCAGGSLRSLLRPGKIDEKYIGVIMRELLVALKCIHKDNVIHRDIKAANVLITNEGNVKLCDFGVAAQVNQTSLRRQTMAGTPYWMAPEVIMEGVYYDTKVDIWSLGITTYEIATGNPPYCDVEALRAMQLIIKSKPPRLEDRSYSTSLKEFIALCLDEDPKERLSADDLLKSKFIRAHKATPTSILKELISRYLLFRDKNKNKYKIEGSIPENEPSKPSEAPKPSQNGGGDEAQKSIASNDNEIKRVNEGDVEMKWDFDSLSSSDYIIENNINLDALAEDNNEWATAQHDLFNYAYPDEDSYYFDPTSHNTRPFVYQGTTIGKGYPGTIAQNSTLNAPVTNNYTNSKYPSKMVAGTTNTSGTHTAGPMTSSKRLESKAPKQLLELFEDNEIITAENDVNTEAPKISKSISSLNAGNSSRDDFIPSISNEVNGNINNNKMRPHLPPLSSGNNYYSQSTPALPLLQTKFNKTSKGPPTSGLTTAPTSIEIEIPEELPNSALPTPASADPVLIPSTKARSSTVTAGTPSSSSSIQYKSPSNVPRRLTVSNNRPEHCPSTITNQKLGSAVASNSGISSTPNNSNNYNNNTDSENSRGSSGSNTANSTQMGITNPGNVTKLSTHKASSPSRPLFGVGTSPNRKPAGSPTQNIGHNSTHTNLAPPPTMKPMANSKDNKDILLQPLNSIPSSSTLNTISGNSSNNLTSSNYFSNEKEGSRVNGDFKRNNPNLKLQMPLPTPVVRNKLLDPNTATSQNNNGMPGSAGISTNENINQFGFNTSSASNIPVSMTPISEKHIDFGGKIKRSQSISNRKNSSASEHPLNILGSSVSGNVSGIGNNNVGSNNNSGPNNSVPLSANTGNTTIKANSTTIATSSSAAASTTAPISQQTIPSGTQFNHILSSAATAANSVNSLGFGMCPPPQSLQMEMFLDLESFLPGKQRRVDRKPQVLKELENLLQMFEEGLPCIEHALKEQLISTPIKDNEH
# Target: Cbk1-GFP (S. cerevisiae) (UniProt P53894)
# Assay: affinity purification with mass spectrometry; Cbk1-GFP immunoprecipitated on GFP-Trap Magnetic beads from extracts of cdc15-2 (with or without rapamycin) and TOR1-1 cdc15-2 (with rapamycin) cells arrested in late anaphase at 37 °C; three biological replicates against untagged control cells; spectral counts, SAINT
row,binding,Binder
1,binds,B1
2,binds,B2
3,binds,B3
4,binds,B4
5,binds,B5
6,binds,B6
7,binds,B7
8,binds,B8

# No constants are given. Whether binding was seen depends on the method and setting. Binding seen in cells or lysates may run through a third protein. A yes stands for co-enrichment or nearness to the bait. Other partners may have been found.
